# Measured values: the supplement of paper PMC12823440, “Inhibitors supercharge kinase turnover through native proteolytic circuits” (Nature, 2025)
# Amino acid sequences for entries named in this document (tags omitted). A change or cut given only in a name is not applied to a line headed by its entry.
# UniProt Q05397, whole entry, looked up: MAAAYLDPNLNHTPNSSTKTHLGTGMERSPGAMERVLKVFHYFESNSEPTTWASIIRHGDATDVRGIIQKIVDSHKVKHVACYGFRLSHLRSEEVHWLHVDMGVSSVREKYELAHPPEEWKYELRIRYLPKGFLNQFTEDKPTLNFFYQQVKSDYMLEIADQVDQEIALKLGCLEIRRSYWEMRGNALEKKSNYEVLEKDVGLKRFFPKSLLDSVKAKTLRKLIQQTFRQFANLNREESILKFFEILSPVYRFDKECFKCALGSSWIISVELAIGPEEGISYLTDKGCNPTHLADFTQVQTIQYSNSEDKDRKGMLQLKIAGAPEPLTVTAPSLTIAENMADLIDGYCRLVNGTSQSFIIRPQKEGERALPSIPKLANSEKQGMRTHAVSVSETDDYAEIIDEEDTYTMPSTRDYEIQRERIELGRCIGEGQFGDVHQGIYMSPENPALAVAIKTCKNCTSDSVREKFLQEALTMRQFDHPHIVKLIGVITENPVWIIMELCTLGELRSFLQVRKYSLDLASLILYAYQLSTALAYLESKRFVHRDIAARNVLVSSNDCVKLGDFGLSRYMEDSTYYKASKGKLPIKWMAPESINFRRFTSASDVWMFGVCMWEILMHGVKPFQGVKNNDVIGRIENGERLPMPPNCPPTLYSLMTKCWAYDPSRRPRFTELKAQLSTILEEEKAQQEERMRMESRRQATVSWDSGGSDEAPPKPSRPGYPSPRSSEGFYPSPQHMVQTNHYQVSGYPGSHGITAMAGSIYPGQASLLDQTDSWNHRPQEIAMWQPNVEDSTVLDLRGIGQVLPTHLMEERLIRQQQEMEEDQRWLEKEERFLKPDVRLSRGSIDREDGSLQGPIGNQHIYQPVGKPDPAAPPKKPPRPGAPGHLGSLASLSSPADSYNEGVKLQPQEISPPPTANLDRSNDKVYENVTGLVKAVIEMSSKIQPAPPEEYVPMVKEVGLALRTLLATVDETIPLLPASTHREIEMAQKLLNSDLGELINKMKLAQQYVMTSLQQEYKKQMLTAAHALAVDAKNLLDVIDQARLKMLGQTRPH
# UniProt Q14289, whole entry, looked up: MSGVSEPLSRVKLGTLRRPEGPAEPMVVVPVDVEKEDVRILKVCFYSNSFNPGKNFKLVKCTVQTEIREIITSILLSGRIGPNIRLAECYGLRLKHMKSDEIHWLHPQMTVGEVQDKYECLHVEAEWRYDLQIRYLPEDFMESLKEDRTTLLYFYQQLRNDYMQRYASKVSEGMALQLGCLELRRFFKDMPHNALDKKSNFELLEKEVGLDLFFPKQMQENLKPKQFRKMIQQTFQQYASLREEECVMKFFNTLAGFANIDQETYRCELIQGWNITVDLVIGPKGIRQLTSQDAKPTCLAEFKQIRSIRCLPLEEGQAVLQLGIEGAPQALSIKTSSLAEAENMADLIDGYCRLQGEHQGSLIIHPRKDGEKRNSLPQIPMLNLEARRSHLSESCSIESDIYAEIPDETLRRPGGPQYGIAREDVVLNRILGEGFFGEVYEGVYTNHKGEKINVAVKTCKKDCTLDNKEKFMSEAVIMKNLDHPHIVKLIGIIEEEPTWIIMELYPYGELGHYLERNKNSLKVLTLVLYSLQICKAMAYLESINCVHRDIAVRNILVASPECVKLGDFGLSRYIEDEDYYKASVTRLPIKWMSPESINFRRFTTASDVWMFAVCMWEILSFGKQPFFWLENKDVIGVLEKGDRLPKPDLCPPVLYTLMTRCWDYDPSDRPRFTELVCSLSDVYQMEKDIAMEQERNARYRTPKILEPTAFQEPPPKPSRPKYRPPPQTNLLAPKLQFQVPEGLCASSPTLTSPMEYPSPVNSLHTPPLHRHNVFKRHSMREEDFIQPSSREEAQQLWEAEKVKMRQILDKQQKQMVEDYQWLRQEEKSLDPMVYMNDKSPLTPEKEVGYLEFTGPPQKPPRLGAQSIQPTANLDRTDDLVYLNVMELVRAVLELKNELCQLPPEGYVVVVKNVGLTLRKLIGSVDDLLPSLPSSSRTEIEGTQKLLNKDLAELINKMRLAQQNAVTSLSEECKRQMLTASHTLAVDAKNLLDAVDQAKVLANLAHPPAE
# UniProt Q9BRS2: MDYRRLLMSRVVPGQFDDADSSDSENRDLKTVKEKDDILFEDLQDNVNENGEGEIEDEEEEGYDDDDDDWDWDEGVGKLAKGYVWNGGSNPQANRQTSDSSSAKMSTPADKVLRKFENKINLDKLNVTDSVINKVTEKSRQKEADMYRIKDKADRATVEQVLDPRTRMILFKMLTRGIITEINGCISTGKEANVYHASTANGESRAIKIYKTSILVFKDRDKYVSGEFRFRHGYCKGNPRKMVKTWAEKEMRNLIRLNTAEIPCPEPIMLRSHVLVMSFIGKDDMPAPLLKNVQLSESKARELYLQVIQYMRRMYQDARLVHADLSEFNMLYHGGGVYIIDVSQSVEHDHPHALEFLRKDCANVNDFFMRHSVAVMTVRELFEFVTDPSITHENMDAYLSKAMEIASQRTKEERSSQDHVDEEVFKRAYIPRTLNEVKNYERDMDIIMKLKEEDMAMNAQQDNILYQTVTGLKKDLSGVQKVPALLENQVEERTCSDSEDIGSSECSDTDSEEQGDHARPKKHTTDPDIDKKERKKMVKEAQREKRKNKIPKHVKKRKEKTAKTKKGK
# UniProt Q13546: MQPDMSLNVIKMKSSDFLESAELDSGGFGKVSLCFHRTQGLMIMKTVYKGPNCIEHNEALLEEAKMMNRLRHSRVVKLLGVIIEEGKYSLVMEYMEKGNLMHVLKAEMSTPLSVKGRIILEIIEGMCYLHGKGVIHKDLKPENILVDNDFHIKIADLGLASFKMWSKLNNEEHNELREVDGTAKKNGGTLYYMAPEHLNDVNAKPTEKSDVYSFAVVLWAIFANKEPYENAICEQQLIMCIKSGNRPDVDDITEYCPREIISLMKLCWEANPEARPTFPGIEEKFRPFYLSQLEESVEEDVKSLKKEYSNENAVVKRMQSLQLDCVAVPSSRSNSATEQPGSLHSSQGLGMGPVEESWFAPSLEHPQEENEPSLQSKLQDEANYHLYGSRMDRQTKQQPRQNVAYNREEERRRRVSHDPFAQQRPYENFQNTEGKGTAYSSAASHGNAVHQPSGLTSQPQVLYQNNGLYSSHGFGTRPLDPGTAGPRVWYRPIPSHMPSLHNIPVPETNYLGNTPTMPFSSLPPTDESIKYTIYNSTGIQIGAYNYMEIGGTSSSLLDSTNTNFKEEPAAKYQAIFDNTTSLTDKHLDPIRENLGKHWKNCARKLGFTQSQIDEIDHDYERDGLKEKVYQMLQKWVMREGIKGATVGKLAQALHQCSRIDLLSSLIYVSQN
# UniProt Q15418, whole entry: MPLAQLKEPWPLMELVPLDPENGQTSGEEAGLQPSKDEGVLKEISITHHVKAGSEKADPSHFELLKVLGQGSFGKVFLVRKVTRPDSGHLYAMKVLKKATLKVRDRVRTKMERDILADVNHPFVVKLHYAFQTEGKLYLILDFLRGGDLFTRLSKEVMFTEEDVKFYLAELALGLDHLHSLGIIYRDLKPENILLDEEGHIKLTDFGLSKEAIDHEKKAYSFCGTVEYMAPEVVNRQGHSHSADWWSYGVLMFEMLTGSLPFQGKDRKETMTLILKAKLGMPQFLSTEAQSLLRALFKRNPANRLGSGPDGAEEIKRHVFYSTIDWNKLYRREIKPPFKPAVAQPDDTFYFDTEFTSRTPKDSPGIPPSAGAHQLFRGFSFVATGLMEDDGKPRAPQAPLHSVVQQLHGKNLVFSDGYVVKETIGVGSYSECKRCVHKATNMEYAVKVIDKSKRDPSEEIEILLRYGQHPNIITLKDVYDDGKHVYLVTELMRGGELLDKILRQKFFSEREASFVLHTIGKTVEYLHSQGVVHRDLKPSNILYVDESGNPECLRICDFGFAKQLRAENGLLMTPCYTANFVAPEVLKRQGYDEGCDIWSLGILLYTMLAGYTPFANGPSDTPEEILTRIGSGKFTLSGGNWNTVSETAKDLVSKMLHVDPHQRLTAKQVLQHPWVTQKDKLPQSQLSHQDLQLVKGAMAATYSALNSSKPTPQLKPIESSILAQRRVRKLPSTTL
# UniProt Q9NYA1, whole entry: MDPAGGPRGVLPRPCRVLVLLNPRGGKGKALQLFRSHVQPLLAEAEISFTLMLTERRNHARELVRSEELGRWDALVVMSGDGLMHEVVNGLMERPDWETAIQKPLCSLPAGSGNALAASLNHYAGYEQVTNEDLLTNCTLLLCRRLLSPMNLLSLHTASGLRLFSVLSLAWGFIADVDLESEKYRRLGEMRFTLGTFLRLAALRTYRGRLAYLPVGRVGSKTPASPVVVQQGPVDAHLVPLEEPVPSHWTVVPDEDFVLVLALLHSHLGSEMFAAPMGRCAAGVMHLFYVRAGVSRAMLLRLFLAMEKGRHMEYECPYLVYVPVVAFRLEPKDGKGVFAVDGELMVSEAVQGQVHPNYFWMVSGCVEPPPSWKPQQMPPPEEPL
# UniProt Q9Y6E0: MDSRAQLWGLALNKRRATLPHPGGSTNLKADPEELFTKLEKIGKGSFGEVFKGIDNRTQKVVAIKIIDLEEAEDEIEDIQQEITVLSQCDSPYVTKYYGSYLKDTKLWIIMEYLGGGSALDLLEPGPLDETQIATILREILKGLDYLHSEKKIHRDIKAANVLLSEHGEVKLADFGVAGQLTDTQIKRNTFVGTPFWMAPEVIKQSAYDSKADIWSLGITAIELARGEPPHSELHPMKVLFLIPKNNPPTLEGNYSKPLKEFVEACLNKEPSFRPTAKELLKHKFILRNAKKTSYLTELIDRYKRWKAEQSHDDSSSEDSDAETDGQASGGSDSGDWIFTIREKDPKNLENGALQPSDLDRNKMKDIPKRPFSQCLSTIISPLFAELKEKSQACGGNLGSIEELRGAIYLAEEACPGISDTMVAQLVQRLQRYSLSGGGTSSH
# UniProt Q15208: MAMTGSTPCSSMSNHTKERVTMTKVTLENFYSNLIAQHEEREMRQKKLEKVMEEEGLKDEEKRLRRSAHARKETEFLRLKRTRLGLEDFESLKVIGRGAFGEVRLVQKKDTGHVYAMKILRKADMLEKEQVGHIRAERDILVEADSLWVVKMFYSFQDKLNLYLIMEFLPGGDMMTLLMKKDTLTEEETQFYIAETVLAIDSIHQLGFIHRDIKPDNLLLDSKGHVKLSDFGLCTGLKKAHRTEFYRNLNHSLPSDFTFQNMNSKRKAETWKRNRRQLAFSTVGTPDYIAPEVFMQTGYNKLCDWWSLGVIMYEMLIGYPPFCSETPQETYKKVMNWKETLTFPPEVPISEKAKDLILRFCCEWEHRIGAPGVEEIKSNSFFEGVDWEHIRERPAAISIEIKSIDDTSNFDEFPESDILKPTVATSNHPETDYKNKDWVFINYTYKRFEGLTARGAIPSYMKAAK
# UniProt P29597: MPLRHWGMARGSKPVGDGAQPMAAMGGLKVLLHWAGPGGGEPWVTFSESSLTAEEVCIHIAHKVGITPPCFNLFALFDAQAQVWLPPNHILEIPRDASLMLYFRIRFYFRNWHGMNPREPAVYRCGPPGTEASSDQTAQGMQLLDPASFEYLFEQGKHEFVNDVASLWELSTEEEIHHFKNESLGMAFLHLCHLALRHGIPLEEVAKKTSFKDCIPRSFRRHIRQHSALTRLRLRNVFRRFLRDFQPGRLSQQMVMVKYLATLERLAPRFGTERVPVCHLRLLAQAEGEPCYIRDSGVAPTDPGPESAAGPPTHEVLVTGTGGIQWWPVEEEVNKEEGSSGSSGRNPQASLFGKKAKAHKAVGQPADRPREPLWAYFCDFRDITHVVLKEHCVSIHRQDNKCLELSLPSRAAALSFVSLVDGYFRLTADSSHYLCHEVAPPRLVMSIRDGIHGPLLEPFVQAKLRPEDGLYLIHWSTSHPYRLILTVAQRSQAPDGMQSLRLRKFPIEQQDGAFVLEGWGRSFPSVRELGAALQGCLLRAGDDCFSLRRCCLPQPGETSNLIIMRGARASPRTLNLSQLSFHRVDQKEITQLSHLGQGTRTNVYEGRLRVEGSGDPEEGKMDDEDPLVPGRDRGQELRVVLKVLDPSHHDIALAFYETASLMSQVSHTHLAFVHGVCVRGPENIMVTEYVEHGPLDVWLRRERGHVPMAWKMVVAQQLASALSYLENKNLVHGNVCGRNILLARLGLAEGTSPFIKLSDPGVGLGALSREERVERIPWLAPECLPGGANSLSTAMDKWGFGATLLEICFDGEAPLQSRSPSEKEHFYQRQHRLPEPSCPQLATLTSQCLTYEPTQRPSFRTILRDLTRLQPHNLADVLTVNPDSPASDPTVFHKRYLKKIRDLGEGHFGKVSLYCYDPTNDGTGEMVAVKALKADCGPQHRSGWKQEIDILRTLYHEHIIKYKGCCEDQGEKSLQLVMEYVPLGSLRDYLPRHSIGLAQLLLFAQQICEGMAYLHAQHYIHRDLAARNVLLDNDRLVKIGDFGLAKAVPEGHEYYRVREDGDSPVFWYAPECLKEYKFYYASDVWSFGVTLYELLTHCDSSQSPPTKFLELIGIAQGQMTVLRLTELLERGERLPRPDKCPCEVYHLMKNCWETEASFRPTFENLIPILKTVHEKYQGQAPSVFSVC
# The other results are listed elsewhere or left out. The calls rarely recur for the same compound in another form.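 In K562 cells expressing nanoluciferase-fused kinases, luminescence was recorded at 4 h intervals between 2 and 18 h, normalized as percent of control with DMSO at 100% and a positive control at 0%. A significant (2 sigma) signal drop marks a time point as decreased. The authors' rule for a hit is not shown and takes in more than the number of time points.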
# Columns and labels:
# Assay in all cases: number of time points (of 5) at which kinase-Nluc abundance scored as decreased, DMSO-normalised (count); higher = more persistent destabilization
# Details in all cases: K562; 2-18 h
# PRKCA = PRKCA (UniProt P17252)
# PTK2 = PTK2 (UniProt Q05397)
# PTK2B = PTK2B (UniProt Q14289)
# RAF1 = RAF1 (UniProt P04049)
# [1] = target: RAF1_S257L (clone: RAF1_mut) (UniProt P04049)
# RET = RET (UniProt P07949)
# [2] = target: RET_M918T (clone: RET_mut) (UniProt P07949)
# RIOK1 = RIOK1 (UniProt Q9BRS2)
# RIPK1 = RIPK1 (UniProt Q13546)
# RIPK2 = RIPK2 (UniProt O43353)
# ROR2 = ROR2 (UniProt Q01974)
# RPS6KA1 = RPS6KA1 (UniProt Q15418)
# SPHK1 = SPHK1 (UniProt Q9NYA1)
# SRC = SRC (UniProt P12931)
# STK24 = STK24 (UniProt Q9Y6E0)
# STK38 = STK38 (UniProt Q15208)
# SYK = SYK (UniProt P43405)
# TEC = TEC (UniProt P42680)
# TYK2 = TYK2 (UniProt P29597)
# ULK3 = ULK3 (UniProt Q6PHR2)
SMILES,number of time points (PRKCA),number of time points (PTK2),number of time points (PTK2B),number of time points (RAF1),number of time points [1],number of time points (RET),number of time points [2],number of time points (RIOK1),number of time points (RIPK1),number of time points (RIPK2),number of time points (ROR2),number of time points (RPS6KA1),number of time points (SPHK1),number of time points (SRC),number of time points (STK24),number of time points (STK38),number of time points (SYK),number of time points (TEC),number of time points (TYK2),number of time points (ULK3)
C[C@@H]1O[C@@H](OC[C@H]2O[C@@H](Oc3cc(O)c4c(c3)O[C@H](c3ccc(O)cc3)CC4=O)[C@H](O)[C@@H](O)[C@@H]2O)[C@H](O)[C@H](O)[C@H]1O [Narirutin] (10 µM),0,0,0,0,0,0,0,0,0,0,0,0,0,0,0,0,0,0,0,0
O=C(Nc1cccc(-c2nncn2C2CC2)c1)c1cc(-n2cnc(C3CC3)c2)ccn1 (10 µM),0,0,0,0,0,0,0,0,0,0,0,0,0,0,0,0,0,0,0,0
COc1ccc(-n2c(C)c([N+](=O)[O-])c3ccc(O)cc32)cc1 (10 µM),0,0,0,0,0,0,0,0,0,0,0,0,0,0,0,0,0,0,0,0
C=C[C@H]1[C@H](O[C@@H]2O[C@H](CO)[C@@H](O)[C@H](O)[C@H]2OC(=O)c2c(O)cc(O)cc2-c2cccc(O)c2)OC=C2C(=O)OCC[C@H]21 [Amarogentin] (10 µM),0,0,0,0,0,0,0,0,0,0,0,0,0,0,0,0,0,0,0,0
CCC(C)(C)C(=O)N(O)Cc1ccccc1 (10 µM),0,0,0,0,0,0,0,0,0,0,0,0,0,0,0,0,0,0,0,0
CN(C)Cc1cccc(N=C(c2ccccc2)c2c(O)[nH]c3cc(C(N)=O)ccc23)c1 (10 µM),0,0,0,0,0,0,0,0,0,0,0,0,0,0,0,0,0,0,0,0
CNC(=O)c1cc(Oc2ccc3nc(N[C@@H]4CCCC[C@H]4O)sc3c2)ccn1 (10 µM),0,0,0,0,0,0,0,0,0,0,0,0,0,0,0,0,0,0,0,0
CC(C)(C)Cn1c(N)nc2ccc(-c3[nH]c(C(C)(C)C)nc3-c3ccc(F)cc3)nc21 [Ralimetinib dimesylate] (2.5 µM),0,0,0,0,0,0,0,0,0,0,0,0,0,0,0,0,0,0,0,0
CC(C)c1cc(/C=C(\C#N)C(N)=O)cc(C(C)C)c1O (10 µM),0,0,0,0,0,0,0,0,0,0,0,0,0,0,0,0,0,0,0,0
O=C(NOCCO)c1ccc2cncn2c1Nc1ccc(I)cc1F (10 µM),0,0,0,1,0,0,0,1,1,0,0,0,0,0,0,0,0,0,0,2
COc1c(O)cc2oc3cc(O)c(CC=C(C)C)c(O)c3c(=O)c2c1CCC(C)(C)O [Garcinone D] (2.5 µM),0,0,0,0,0,0,0,0,0,0,0,0,0,0,0,0,0,0,0,0
Cn1cc(-c2cc3c(N4CCN(c5ncc([C@@](C)(N)c6ccc(F)cc6)cn5)CC4)ncnn3c2)cn1 [Avapritinib] (2.5 µM),0,0,0,0,0,0,0,0,0,0,0,0,0,0,0,0,0,0,0,0

# Some entries already given, showing only number of time points (PTK2) and number of time points (PTK2B).
SMILES	number of time points (PTK2)	number of time points (PTK2B)
O=C(Nc1cccc(-c2nncn2C2CC2)c1)c1cc(-n2cnc(C3CC3)c2)ccn1 (10 µM)	0	0
Cn1cc(-c2cc3c(N4CCN(c5ncc([C@@](C)(N)c6ccc(F)cc6)cn5)CC4)ncnn3c2)cn1 [Avapritinib] (2.5 µM)	0	0
